# According to paper PMC7112222, “Investigation of pyrimidine nucleoside analogues as chemical probes to assess compound effects on the proliferation of Trypanosoma cruzi intracellular parasites” (PLoS Neglected Tropical Diseases, 2020):
# System: T. cruzi intracellular amastigotes
# Test: Image-based assay of the number of T. cruzi infected cells (intracellular amastigotes in 3T3 host cells)
# Assay type: cell-based, Trypanosoma cruzi
# Procedure: Parasites and host cells were maintained as outlined previously. Briefly, host 3T3 fibroblasts (ATCC, CCL-92) were grown in RPMI medium (Thermo Fisher Scientific, USA) with no phenol red, supplemented with 10% FBS (Thermo Fisher Scientific, USA) and incubated at 37°C in 5% CO2. Host cells were harvested at 70% confluency and were split every 2–3 days in 175 cm^2 flasks. 3T3 cells were cultured up to passage 7 as contact inhibition was reduced or lost at higher passages. Prior to infection with T. cruzi trypomastigotes, host cells were seeded at 1.2 x 10^6 cells in 75 cm^2 or 4 x 10^5 cells in 25 cm^2 flasks and grown for 24 hours before parasite addition. […]
# The activity of the nucleoside analogues against T. cruzi intracellular amastigotes following 24, 48 hours exposure and compound wash off, was determined using image-based techniques as previously described. […]
# IC50 values for inhibitory activity of both the nucleoside analogues tested as DNA probes and known inhibitors tested to determine their effect on replication of T. cruzi were calculated in GraphPad Prism 5, using sigmoidal dose response with variable slope. […] The p-value for difference in the % activity at Emax concentrations for compounds with known activity (EdU identified parasites, compared to Hoechst identified parasites) against T. cruzi was determined using GraphPad Prism 5, using an unpaired student’s t-test. […]
smiles,measurement,setting,value
"C#Cc1cn([C@H]2C[C@H](O)[C@@H](CO)O2)c(=O)[nH]c1=O [EdU, 5-ethynyl-2′-deoxy-uridine]",fold increase in the IC50 value following wash off,"48 hours incubation, wash off, further 72 hours vs 48 hours",10 fold
same,"fold increase in activity against T. cruzi, 48 vs 24 hours incubation",IC50 24 h vs 48 h,1.8 fold
